At least one compound was matched to its structure with a doubt left.
Tested on: syngeneic C57BL/6 mice
Experiment: Syngeneic mouse model of endometriosis: mechanical allodynia by von Frey pain stimulation procedure
Type: in vivo
Conditions: 5 mg/kg i.p., days 4 and 5, measured one hour following treatment; p=0.0002 and p<0.05, respectively; FIG. 1B
Protocol: A P2X3 receptor antagonist compound of Formula (I) described herein was evaluated in the syngeneic mouse model of endometriosis.
C57BL/6 mice (8 weeks old) were anesthetized before making a vertical incision on the abdomen. The uterus was collected and divided into pieces of 5 millimeters which were then surgically sutured onto the peritoneum of syngeneic recipient animals. The recipient mice were also treated with oestradiol and the resulting lesions were allowed to develop for 11 weeks.
Baseline measurements were established on Day 0 by measuring mechanical allodynia in all transplanted mice using a von Frey pain stimulation procedure in accordance with the protocol described below. On Day 1 transplanted mice were injected with saline (i.p.) and mechanical allodynia was again measured using the von Frey filament method (control). […] Mechanical allodynia was evaluated using the von Frey pain stimulation procedure. […] The mice were euthanized on Day 6 and evaluated for the presence of endometriotic lesions.
Animals were placed in small cages with a mesh or otherwise penetrable bottom. The pain threshold was evaluated with von Frey filaments using the simplified up-down method, which determines the mechanical force required to elicit a positive pain response in animals. […]

SMILES: Cc1cnc(NC(=O)C2=C(O)c3ccccc3S(=O)(=O)N2C)s1 [meloxicam, Meloxicam]
- stimulus threshold (von Frey test; pressure stimulus required to elicit behavioral response, change from baseline Day 0): increased stimulus threshold

Source: patent US12485125B2, “Treatment with P2X3 modulators” (GlaxoSmithKline Intellectual Property (No. 3) Limited, priority 2019, dated 2025)
